Measurements taken from publication PMC11818545.
Results are given in words; binding and its absence hold for the method and conditions named. Binding seen in cells or lysates may run through a third protein.

By UniProt entry, the sequences of proteins in these tests, tags left out.
UniProt P09528: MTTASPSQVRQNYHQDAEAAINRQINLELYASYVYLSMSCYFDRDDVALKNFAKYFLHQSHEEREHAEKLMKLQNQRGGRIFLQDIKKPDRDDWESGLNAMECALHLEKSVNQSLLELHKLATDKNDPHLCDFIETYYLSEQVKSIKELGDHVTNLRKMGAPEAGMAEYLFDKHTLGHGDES
UniProt Q9CUN6: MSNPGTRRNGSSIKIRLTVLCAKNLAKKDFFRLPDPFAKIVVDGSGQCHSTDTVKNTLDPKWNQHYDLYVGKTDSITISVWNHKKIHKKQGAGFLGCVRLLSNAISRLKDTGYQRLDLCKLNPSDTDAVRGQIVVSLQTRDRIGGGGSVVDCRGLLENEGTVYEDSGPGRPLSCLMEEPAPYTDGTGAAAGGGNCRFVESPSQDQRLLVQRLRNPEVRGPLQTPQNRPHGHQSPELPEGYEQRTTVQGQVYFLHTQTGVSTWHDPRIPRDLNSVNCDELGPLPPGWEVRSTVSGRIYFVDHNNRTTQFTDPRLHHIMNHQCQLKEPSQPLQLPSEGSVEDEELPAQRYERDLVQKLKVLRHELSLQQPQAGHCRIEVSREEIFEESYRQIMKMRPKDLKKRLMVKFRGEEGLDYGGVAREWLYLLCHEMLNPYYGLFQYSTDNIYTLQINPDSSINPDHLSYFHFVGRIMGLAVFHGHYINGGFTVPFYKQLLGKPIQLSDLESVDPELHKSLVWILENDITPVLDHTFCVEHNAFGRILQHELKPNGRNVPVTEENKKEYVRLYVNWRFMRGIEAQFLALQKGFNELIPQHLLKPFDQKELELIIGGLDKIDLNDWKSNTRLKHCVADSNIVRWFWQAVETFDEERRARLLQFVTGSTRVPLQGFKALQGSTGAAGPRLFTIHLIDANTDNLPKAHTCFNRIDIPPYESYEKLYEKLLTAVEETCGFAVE

Experiments:
[1] = biological target: Ferritin heavy chain 1 (FTH1), endogenous in mouse primary myoblasts (mouse (endogenous in primary myoblasts)) (UniProt P09528); assay: co-IP; reciprocal co-immunoprecipitation of endogenous proteins with SMURF1 or FTH1 antibody or control IgG, protein A/G plus-agarose, lysate of primary myoblasts cultured 4 days in differentiation medium, immunoblot
[2] = biological target: E3 ubiquitin-protein ligase SMURF1, endogenous in mouse primary myoblasts (mouse (endogenous in primary myoblasts)) (UniProt Q9CUN6); assay: as above

B1: Atrogin1, endogenous in mouse primary myoblasts (protein, UniProt Q9CPU7 1-355)
chain: MPFLGQDWRSPGQSWVKTADGWKRFLDEKSGSFVSDLSSYCNKEVYSKENLFSSLNYDVAAKKRKKDIQNSKTKTQYFHQEKWIYVHKGSTKERHGYCTLGEAFNRLDFSTAILDSRRFNYVVRLLELIAKSQLTSLSGIAQKNFMNILEKVVLKVLEDQQNIRLIRELLQTLYTSLCTLVQRVGKSVLVGNINMWVYRMETILHWQQQLNSIQISRPAFKGLTITDLPVCLQLNIMQRLSDGRDLVSLGQAAPDLHVLSEDRLLWKRLCQYHFSERQIRKRLILSDKGQLDWKKMYFKLVRCYPRREQYGVTLQLCKHCHILSWKGTDHPCTANNPESCSVSLSPQDFINLFKF
binding [1]: no binding
binding [2]: no binding
